## Screening data

The results are deposited in PubChem (AID1159506; NCATS, 2015).

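Luminescence from an EWS-FLI1 target-promoter (NR0B1) reporter, set against a CMV-promoter reporter, two days after silencing single genes in TC32 Ewing sarcoma cells.
Each siRNA was applied at 20 nM.
A z-score of the log NR0B1-over-CMV signal, less the median of siRNAs with the same seed; more negative means a stronger specific loss of the NR0B1 reporter.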

The strongest results of the screen are mostly left out here.
Sequences are the guide (antisense) strand, without overhang.

strand | gene | seed-corrected z-score
UAAGGUCCGAGAUUUCCUC | MYH6 | -0.4547
UGGUUGAUGAACUACCUGC | C8orf34 | -0.1661
UCAGCAGGAACACUAGGGC | CXCR1 | 0.6322
UUUAUGAAGAUGCGUCUCU | LOC644504 | 0.8272
AAUAUUGCAACUGACAGUG | FGB | -0.7608
UUAGUGUUGAUCACUAGGU | TMEM177 | -0.2844
AACCGGAAAAUAUAGCUUC | CBLB | 0.1931
UGUAGAUCAGCAAUCACGG | GEN1 | -0.2247
UAUCAUACAACGUGGUUGC | C14orf169 | 0.08203
UUUGCAUCUGUAGUAGUCC | NPIPA1 | 0.7945
UCUUAUGAUAGUUACGUGG | TLL1 | -0.924
UCAUGGGACAAGUAGAAGG | SYNDIG1 | 0.1277
UGACUAAUCCUGCACGUCC | PARP15 | -0.5997
UAAGGGUAGAUUACGUCUC | STEAP4 | -0.1567
UAAUUCAUCUUGUAAAACC | CEP112 | 1.185
UACCUGUCAAUGGUUAACG | GPR139 | -0.3592
UGUACUAUAAGGGAGUUUC | TBX3 | -0.3448
UUGAUGUAAACCGAGAAGC | NPLOC4 | -0.3958
UCUCAUUUAGACUUAACGC | PCDHA12 | -0.2658
AUACUAUCCACAAUCCAGC | TMEM150C | -0.6585
UGAGCUUCCUCAGUCAAGC | ZNF648 | -0.4626
UGAAGUUCGCCGGUAACAG | KRTAP11-1 | -0.5645
UCAGUAGACAGAGUGAAUA | STRC | 0.3441
AGUUGUGCUAGAAUGUUGG | C2orf78 | 0.0164
UUGGGUAAGCAGUGCAUCC | PRAMEF5 | -0.409
UAUCGAUAAAGGAGACAUC | ACOT9 | -0.009107
UUGGAACCCUUUAUACAUC | TIMP1 | -0.951
UGAUGUCUAACAGCGGGUC | CNTN3 | -0.1996
UUAUUAGCUCCAGAUCUUC | HYPK | 0.1724
UAAUACUUAUUUCAGUUCC | ADGRF3 | -0.6174
UAUGUAAGAAGAUUCUCUC | LRRC1 | -0.09493
UAUUGCAAGAAUGAGUAUG | PHOSPHO2 | -0.9752
UCAACUGUUAAUUUCCGGC | DMP1 | 0.2113
UGAAUUGUAAGAGAAAAGC | ZNF557 | 0.002048
UUAGGUCCAAGAGACGGAG | AGTRAP | 0.6061
UUCUCAAAUAUUUAGAGAC | HCG27 | 0.3942
UAGCUAACGAGAGCAGAGG | TRPC4AP | -0.5422
UUGCAGAAUGUAUAUGGGC | GUCY1B3 | 0.8066
UUUCUGUUGGUAAUUGGUC | SPACA1 | -0.4563
UGACCAGUAAGACUCGAAC | ZNF790 | 0.0112
AUGGGUCAAAGUCUUAUCC | C1orf61 | 0.794
AAAGAGCUUCGUGUGCUUG | TMEM106A | -0.215
UGAUAGCUAAAUACCAUUC | SCRN3 | -1.32
UCACGUAGCAGUAAUAGUG | USP36 | 0.3692
UACAUAGUCAUGGGCAUCG | ST6GALNAC2 | -1.062
UUGUCGUUAAAUAUCUUGG | MTR | -0.8137
AUUGGGAUAGGCUCUGAGG | FGF23 | 1.865
UUUGGUAGAUUGUUCAUUU | C1orf162 | 0.8194
UAUGGCUUCACCAUUUUCU | RPL36AL | 0.1639
UUCAGGGCAGCGGAAUUCC | DEF8 | 0.1355
UUCGAAAUGUUGUAAAAGC | SLC30A4 | -0.02956
UAUGGUAUUGGUGAUACAG | NDFIP2 | 0.5605
UUCGUAAGUGAAGAGAGCG | MYO10 | -0.007699
ACCAUUGGCAGUUUAAGCC | GAS8-AS1 | -0.7539
UUCAGGGUAAUAAUCACUU | CXCL11 | -1.049
UGAAUGAUUUCAACUGUGG | LOC729800 | -0.3914
UUUCUACCCAUGACAGUUU | PHF2 | -0.001178
AAUUGUAAAGGAGUUUACU | CCDC59 | 0.1912
UUAGUGAGAUGCACCAGUC | MUM1L1 | 0.7139
UAGAGUUCGCUUUAAGGCU | CCDC162P | -0.8563
UGUAGUCUCCCGAUUCACC | C1QB | -0.6536
AUGAUAUCGAAUGUAAUUG | ZNF20 | -0.2905
UUCGUUUAAGUAACCCAAC | TTC37 | -1.714
UCUGAUCGAGCUUCAGUGC | RHBDD2 | -0.5294
UCGAUGAUCACCGGGAUUU | MAP1LC3A | 1.419
UGCUCGUUCAGAAAGGUCC | PATL1 | -0.8413
UUUCUUAACUGUAACAUGG | C6orf226 | 0.6638
UACCAUGUCUGACAUGUGC | HDC | 0.505
UCUAAGUUAAGUUUAACCC | DNAJA1P4 | 0.2557
AACUGGGAUACGUGAAUGC | ZNF763 | -0.8914
AGACAUUCCACGCAGAAGG | RNF183 | 0.2713
UUUCAUCCAAAACUCUUCG | KRT25 | 0.5586
UUGGAAUCCAUUGAGAAGG | VN1R1 | 0.7431
UCUGACAUGACAGUGAUGC | SNTN | -0.496
UCCAGGCCCGUUUUGUUCG | FOXA2 | 0.09133